The target in the experiment is hBaffR (human). Put plainly: ELISA on coated antigen, detection with anti-Fab-AP, fluorescence signal intensity. (In an ELISA, binding on a coated surface is turned into a signal by an enzyme label.)

These are yes or no findings as the source states them, for the method shown.

B1: Antibody 7 (antibody, human IgG1, lambda, V domains shown)
VH: QVQLVESGGGLVKPGGSLRLSCAASGFTFSSYVVHWVRQAPGKGLEWVGRIRLETHGYAAEYAASVKGRFTISRDDSKNTLYLQMNSLKTEDTAVYYCARVERSKSGFDNWGQGTLVTVSS
VL: QSVLTQPPSVSGAPGQRVTISCTGSSSNIGAGYSVHWYQQLPGTAPKLLIYGQSERPSGVPDRFSGSKSGTSASLAITGLQAEDEADYYCQSWDSSQTLVVFGGGTKLTVLG
notes: germlined clone of NOV0806 (HCDR2-matured NOV0442_VL[Y49,G50,N51Q]); human IgG1; final lead; also called NOV0958; NOV958
Regarding B1, the binding result is “no binding (tested: not given on the sheet)”.
